Measured values reported in US20180079804A1.
Positions count from the first letter of the chain named. Results are given in words; binding and its absence hold for the method and conditions named. Each block holds one binder with its values, some of them ahead of it.

Columns and labels:
[1] = biological target: microtubuli associated tau; experiment: ELISA
[2] = biological target: keyhole limpet hemocyanin; experiment: condition: 1:5 dilution of the cell culture supernatants; ELISA, single-point

binding [1]: no binding
B1: VH32/VL21 (antibody, V domains shown)
VH: EVQVLESGGGLVQPGGSLRLSCAVSGFSLSSNAINWVRQAPGKGLEWVGYIAVSGNTYYASWAKGRFTISRDNSKNTVYLQMNSLRAEDTAVYYCGKSNIWGQGTLVTVSS
VL: AQVMTQSPSSLSASVGDRVTITCRSSQSVRTNKLAWFQQKPGQPPKRLIYSASTLDFGVPSRFSGSGSGTEFTLTISSLQPEDFATYYCLGYFDSSADIVAFGGGTKVEIK

binding [1]: no binding
B2: VH32/VL22 (antibody, V domains shown)
VH: B1 VH
VL: B1 VL with K33R, F57Y

binding [2]: no binding
B3: mAb 086 (antibody, V domains shown)
VH: QSVEESGGRLVTPGTPLTLTCTVSGFSLSSNAINWVRQAPGKGLEWIGYIAVSGNTYYASWAKGRFTISKASTTVDLKMTSPTAEDTGTYFCGKSNIWGPGTLVTVSL
VL: AQVLTQTTSPVSAAVGSTVTISCQSSQSVRTNKLAWFQQKPGQPPKRLIYSASTLDFGVPSRFSASGSGTQFTLTISDVQCDDAATYYCLGYFDCSIADCVAFGGGTEVVVK

binding [1]: no binding
B4: VH00/VL00 (antibody, V domains shown)
VH: B3 VH
VL: B3 VL
